Laboratory results taken from PMC12040169 (PLOS Biology, 2025).
The other results are listed elsewhere or left out.

What follows are molecules tested on T1, CTL2-GFP (C. trachomatis L2/434/Bu, GFP-expressing). Conditions: bulk GFP, single well; 28.5 h, 10 µM; inhibitor.
T1 construct: L2/434/Bu, GFP-expressing
Set-up: species or system HeLa; Intracellular C. trachomatis growth in HeLa cells, bulk GFP fluorescence relative to DMSO

SMILES	% of control remaining [%]
CNc1nc(N)nc(OCC(F)(F)F)n1 [CBK028082]	158.811
Cn1ccnc1C1(O)CC2CCC(C1)N2C(=O)c1cccs1 (stereo not shown) [CBK284088]	129.909
CCc1nnc(NS(=O)(=O)c2ccc(Nc3ccc([N+](=O)[O-])c4nonc34)cc2)s1 [CBK261442]	117.213
CN1CCN(CC(=O)Nc2sc3c(c2C(=O)Nc2ccccc2)CCCC3)CC1 [CBK268431]	110.255
C#CCNC(=O)CC[C@H]1CNC(=O)[C@@H]2[C@@H](CCN2Cc2cccs2)N1C [CBK289033]	165.986
CN1CCC(N2CCN(C(=O)NCCN3CCOCC3)CC2)CC1 [CBK155891]	99.2883
CC(C)(C)c1ccc(C(=O)N2CC(C(=O)O)C2)cc1 [CBK008670]	97.7972
CCN1CCN(c2nc(N)c3ccccc3n2)CC1 [CBK268561C]	105.312
COc1cc(NC(=O)CN2C(=O)c3ccc([N+](=O)[O-])cc3C2=O)c(C(=O)O)cc1OC [CBK265109]	100
O=C(Cc1ccsc1)Nc1snnc1-c1ccc(Cl)cc1 [CBK153243]	93.252
CCN(CC)CCN1C(=O)CCC2(c3ccccc3)CCC(=O)C=C12 (stereo not shown) [CBK023010C]	133.031
COc1ccccc1N1CCN(CCCCNS(=O)(=O)c2ccc(Cl)c(Cl)c2)CC1 [CBK074837]	113.31
Cc1ccc2cc(C)c3nn(CC(=O)NC4CC4)c(=O)n3c2c1C [CBK283822]	116.382
Cc1ccccc1N1C(=O)c2ccc(C(=O)OCC(=O)c3ccc(Cl)c([N+](=O)[O-])c3)cc2C1=O [CBK264108]	100
O=C1CC(c2ccc(F)cc2)Cc2[nH]c(=O)c(C(=O)O)cc21 (stereo not shown) [CBK287200]	149.02
COc1ccc(CCN(Cc2ccc(Cl)c(Cl)c2)C(=O)NCc2ccc(C#N)cc2)cc1OC [CBK158771]	123.433
CC(C)c1nc(C(=O)NCC2CCCN(c3ncccn3)C2)cs1 (stereo not shown) [CBK304351]	88.2077
CC(C)Cn1ncc2cc(C(=O)Nc3ccnn3C(C)C)cnc21 [CBK304938]	63.9079
Cc1ccc(NC(=S)N2CCN(C/C=C/c3ccccc3)CC2)cc1 [CBK264574]	100
CS(=O)(=O)N1CC2(CCN(C(=O)[C@@H]3CNC[C@H]3c3ccccc3)CC2)c2ccccc21 [CBK022572]	103.172
Cc1ccc(N(CC(=O)N/N=C/c2ccc(Cl)cc2)S(=O)(=O)c2ccccc2)cc1 [CBK262182]	95.5016
Cc1nc2cccnc2n1CCNC(=O)Cc1cccs1 [CBK283592]	109.405
Cc1ncccc1COC(=O)N1Cc2ccccc2C1 [CBK200138]	103.491
CSc1nnc(CC2CCN(C(=O)c3cc(C)c(C)cc3C)CC2)n1C [CBK307467]	149.065
CC(=O)C1=C(O)C(=O)N(CCN2CCOCC2)C1c1cccc([N+](=O)[O-])c1 (stereo not shown) [CBK264568]	100
COc1ccc(-c2nccnc2N[C@@H](CO)C(C)C)cc1 [CBK089040]	84.951
CC1CCN(CC(=O)NC2CCN(C(C)c3ccccc3)CC2)CC1 (stereo not shown) [CBK284017]	124.539

SMILES	% of control remaining [%]
O=C(N/N=C/c1c(Cl)cccc1Cl)c1cc(Br)ccc1O [CBK262022]	129.012
Cc1csc(NC(=O)C2CC(=O)N(C3CCCC3)C2)n1 (stereo not shown) [CBK175501]	117.71
OC1CCN(Cc2ccc(-c3ccc(F)cc3F)o2)CC1 [CBK283200]	119.925
Cc1nc(C(=O)N2CCn3nc(C(O)Cc4ccccc4)cc3C2)cs1 (stereo not shown) [CBK307214]	149.934
O=C(COc1ccccc1)N/N=C/c1ccc[nH]1 [CBK261281]	116.187
CS(=O)(=O)N1CCC(c2nc(-c3ccc(C(F)(F)F)cc3)c3ccccn23)CC1 [CBK036006]	100
Cc1nc2c(C)cccc2cc1C(=O)NCCCc1ccccn1 [CBK282148]	140.57
Cc1nc2c(c(=O)[nH]1)CCN(CCC(C)c1ccccc1)C2 (stereo not shown) [CBK282387]	170.244
O=C(COc1ccc(S(=O)(=O)N2CCCCC2)cc1)N1CCC(Cc2ccccc2)CC1 [CBK268547]	129.434
Cc1cc2c(cc1Cl)C(=O)CC1(CCN(C(=O)C3CC(=O)OC3(C)C)CC1)O2 (stereo not shown) [CBK156514]	104.018
COc1cc(NC(=O)N(C)C2CCN(C)C2)cc(OC)c1OC (stereo not shown) [CBK156022]	164.495
Cn1c(=O)n(C)c2cc(NC(=O)CSc3nc(Nc4ccccc4)nc(N4CCOCC4)n3)ccc21 [CBK269041]	68.1719
O=C1NC/C=C/CC2(CCN(c3ncccn3)CC2)C(=O)NCCOc2ccccc21 [CBK292081]	178.046
O=C1c2ccccc2C(Nc2cccnc2)N1c1ccccn1 (stereo not shown) [CBK113239]	100.825
COCCn1cc(C(=O)N2CCOC3CCCC32)c2ccccc21 (stereo not shown) [CBK305156]	106.164
O=C(O)c1ccc(S(=O)(=O)Nc2ccc(OC3CCCC3)cc2)cc1 [CBK296658]	113.198
CN(C)S(=O)(=O)Nc1ccc(Cc2ccncc2)cc1 [CBK265011]	124.844
Cc1ccc(Cn2cnc3c(nnn3-c3ccc(C)cc3)c2=O)cc1 [CBK287502]	125.609
Cc1ccc(-c2cn(S(=O)(=O)c3cccc4nsnc34)nc2N)cc1 [CBK268871]	86.4582
CCOC(=O)C(C)n1nc(C)n2c(cc3sc(C)cc32)c1=O (stereo not shown) [CBK284066]	136.973
Cn1cc(-c2nc(C(=O)N3CCN(c4ncccn4)CC3)cs2)cn1 [CBK305626]	148.12
CN(C)S(=O)(=O)N(CC(=O)N1CCN(Cc2ccccc2)CC1)c1ccccc1 [CBK268423]	126.767
O=C(NCc1cccs1)N1CCCN(Cc2ccc(F)cc2)CC1 [CBK306294]	168.888
CCN(CC)S(=O)(=O)c1ccc2c(c1)CCCN2C(=O)c1ccc(C#N)cc1 [CBK295161]	143.828
COc1ncc(-c2cncc(NCc3cccc(Cl)c3)n2)c(OC)n1 [CBK065211]	240.639
COc1ccc(CCC(=O)N2CCCCC2c2ncc(-c3cccc(F)c3)[nH]2)cc1OC (stereo not shown) [CBK291148]	121.819
O=c1ccnc(SCc2cccc(Cl)c2)[nH]1 [CBK288123]	120.575

Laid out differently: two of the compounds above

| SMILES | % of control remaining [%] |
| --- | --- |
| CCN(CC)CCN1C(=O)CCC2(c3ccccc3)CCC(=O)C=C12 (stereo not shown) [CBK023010C] | 133.031 |
| O=C(COc1ccccc1)N/N=C/c1ccc[nH]1 [CBK261281] | 116.187 |

(listing goes on)

SMILES	% of control remaining [%]
O=C(NCC1CCCO1)C1(Cc2ccc(-c3ccc(F)c(F)c3)cc2)CCOCC1 (stereo not shown) [CBK285534]	113.968
CC1(C)Cc2nc3[nH]nc(N)c3cc2CO1 [CBK261476]	121.893
COCCCN(Cc1ccccn1)Cc1ccc(F)cc1F [CBK282974]	109.939
Cc1cnn(CCC(=O)NC(Cc2ccsc2)c2nccs2)c1 (stereo not shown) [CBK284664]	158.379
Fc1ccc(CCN2CCCCC2c2cc3ccccc3[nH]2)cc1 (stereo not shown) [CBK107227T]	50.3485
O=C(c1nccs1)C1CCN(C(=O)Cc2ccc(F)cc2)CC1 [CBK284199]	98.9262
COc1ccc(C)cc1S(=O)(=O)n1ccc2c(CNC3CCN(C(C)C)CC3)cccc21 [CBK113310T]	105.259
Cc1nn(C(C)C)c(C)c1CN(CCO)Cc1cccs1 [CBK283016]	132.784
N#Cc1ccc(S(=O)(=O)NC2CCCCNC2=O)cc1 (stereo not shown) [CBK009293]	109.303
Cc1ccc2[nH]c(SC(C)C(=O)N3CCOCC3)nc2c1 (stereo not shown) [CBK306187]	90.3992
O=C(CSc1ccc(Cl)cc1)OCC(=O)c1ccccc1 [CBK264306]	99.6246
Cc1c(Cc2ccccc2)c(N2CCN(Cc3ccccc3)CC2)n2c(nc3ccccc32)c1C#N [CBK263150]	100
COC(C(=O)N(C)C)C(OC)C(=O)N(C)C (stereo not shown) [CBK005447]	118.507
O=C(CCn1cnc2cc(-c3noc(-c4cnccn4)n3)ccc21)N1CCCC1 [CBK288595]	148.219
c1ccc(OCCSc2nc3ccccc3nc2N2CCCC2)cc1 [CBK103694]	93.7158
O=C(CCC1CCCC1)N1CCC(O)(c2cccnc2)CC1 [CBK283603]	128.79
Cc1nc(C)c(C(=O)c2coc3ccc(O)cc23)o1 [CBK027631]	125.317
CC(C)C(NS(=O)(=O)c1ccc([N+](=O)[O-])cc1)C(C)C [CBK267656]	110.332
N#CCCCN1CCC(Oc2nccnc2OCc2c(F)cccc2Cl)CC1 [CBK153630]	118.129
Cn1cc(CC(=O)NCc2ccc(OC3CCNCC3)cc2)c2ccccc21 [CBK028430T]	124.785
Cc1cc(=O)oc2cc(Sc3ccc([N+](=O)[O-])cc3)ccc12 [CBK002954]	107.853
Cc1cc2c(cc3c(=O)n(CC(=O)N4CCC(C)CC4)nc(C)n32)o1 [CBK283590]	150.288
Cc1ccc(OCc2ccc(Cl)nc2)c(Br)c1 [CBK002842]	113.135
CN1CCC(N2CCC[C@H]2c2nc(-c3ccnc(N4CCOCC4)c3)no2)CC1 [CBK288880]	129.964
N#Cc1ccc2nc([C@H]3CCN(C(=O)C4CCCCC4)C3)[nH]c2c1 [CBK289380]	97.1244

Grouped by structure: the compounds so far with a furan ring, fused or not (three)
SMILES	% of control remaining [%]
OC1CCN(Cc2ccc(-c3ccc(F)cc3F)o2)CC1 [CBK283200]	119.925
Cc1nc(C)c(C(=O)c2coc3ccc(O)cc23)o1 [CBK027631]	125.317
Cc1cc2c(cc3c(=O)n(CC(=O)N4CCC(C)CC4)nc(C)n32)o1 [CBK283590]	150.288
